PubChem BioAssay AID504791 | Drosophila RNAi Screening Center | 2011
Assay: 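Genes of the fly required for silencing by miRNA, siRNA or endo-siRNA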 (primary screen). System: Drosophila S2-derived reporter cells. Reagents: long dsRNA against Drosophila genes, about 150-250 ng dsRNA per well (siRNA assay); about 80-120 ng (miRNA assay). Timing: about 5 days (siRNA assay); about 4 days (miRNA assay). Treatment: copper sulfate induction of reporters: 25 µM (siRNA assay); 200 mM stated (miRNA assay), 1-2 days before reading. Read-out: 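Per-well ratio of Renilla over firefly light, expressed relative to that plate's average ratio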. Units: stable assay Renilla, run 1 in luminescence; stable assay firefly, run 1 in luminescence. Call rule: 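First-pass picks had plate-scaled ratios over 1.5 for the siRNA assay, over 1.6 for the miRNA assay, or under 0.6; two distinct dsRNAs had to score alike on retest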.
The deposit covers about 23,000 reagents; shown is a random part of those with a known target gene and a result. Over the whole deposit, 199 (0.86%) are marked active. 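Plate-scaled ratios behind the calls are not deposited; printed light signals are raw; many rows marked increased or decreased are still called inactive.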 Reagents against one gene are numbered here. Reagent sequences are not shown. Not given: the direction of the score.

CG15096 (GeneID 37170) | stable assay Renilla, run 1 = 10805; stable assay firefly, run 1 = 4.94e5; call = inactive
sunz (GeneID 40811) | stable assay Renilla, run 1 = 7588; stable assay firefly, run 1 = 4.50e5; call = inactive
AP-2sigma (GeneID 42525) | stable assay Renilla, run 1 = 8749; stable assay firefly, run 1 = 3.82e5; call = inactive
r2d2 (GeneID 34066) | stable assay Renilla, run 1 = 7606; stable assay firefly, run 1 = 4.10e5; call = inactive
Cpr47Ea (GeneID 36188) | stable assay Renilla, run 1 = 6080; stable assay firefly, run 1 = 3.44e5; call = inactive
CG32032 (GeneID 192535) | stable assay Renilla, run 1 = 5872; stable assay firefly, run 1 = 3.48e5; call = inactive
Liprin-beta (GeneID 39524) #1 | stable assay Renilla, run 1 = 5806; stable assay firefly, run 1 = 2.69e5; call = inactive
Liprin-beta (GeneID 39524) #2 | stable assay Renilla, run 1 = 3684; stable assay firefly, run 1 = 2.91e5; call = inactive
Ubx (GeneID 42034) | stable assay Renilla, run 1 = 3027; stable assay firefly, run 1 = 3.05e5; call = inactive
Tengl1 (GeneID 318883) | stable assay Renilla, run 1 = 7994; stable assay firefly, run 1 = 3.71e5; call = inactive
CG13954 (GeneID 35959) | stable assay Renilla, run 1 = 6011; stable assay firefly, run 1 = 3.28e5; call = inactive
CG7963 (GeneID 41001) | stable assay Renilla, run 1 = 6052; stable assay firefly, run 1 = 3.80e5; call = inactive
Eglp2 (GeneID 37737) | stable assay Renilla, run 1 = 2.06e5; stable assay firefly, run 1 = 4.81e5; call = inactive
CG30431 (GeneID 35549) #1 | stable assay Renilla, run 1 = 2.53e5; stable assay firefly, run 1 = 1.48e6; call = inactive
CG30431 (GeneID 35549) #2 | stable assay Renilla, run 1 = 6735; stable assay firefly, run 1 = 3.62e5; call = inactive
Rip11 (GeneID 32850) | stable assay Renilla, run 1 = 8378; stable assay firefly, run 1 = 4.56e5; call = inactive
yip7 (GeneID 38680) | stable assay Renilla, run 1 = 6492; stable assay firefly, run 1 = 6.11e5; call = inactive
CG14110 (GeneID 39500) | stable assay Renilla, run 1 = 8700; stable assay firefly, run 1 = 4.71e5; call = inactive
Grl36b (GeneID 318940) | stable assay Renilla, run 1 = 5244; stable assay firefly, run 1 = 3.90e5; call = inactive
CG13059 (GeneID 39803) | stable assay Renilla, run 1 = 7994; stable assay firefly, run 1 = 4.41e5; call = inactive
Argk1 (GeneID 39041) #1 | stable assay Renilla, run 1 = 3644; stable assay firefly, run 1 = 3.17e5; call = inactive
Argk1 (GeneID 39041) #2 | stable assay Renilla, run 1 = 4900; stable assay firefly, run 1 = 3.81e5; call = inactive
Argk1 (GeneID 39041) #3 | stable assay Renilla, run 1 = 8411; stable assay firefly, run 1 = 4.50e5; call = inactive
Argk1 (GeneID 39041) #4 | stable assay Renilla, run 1 = 9129; stable assay firefly, run 1 = 4.06e5; call = inactive
Argk1 (GeneID 39041) #5 | stable assay Renilla, run 1 = 5471; stable assay firefly, run 1 = 5.28e5; call = inactive
CG6470 (GeneID 32840) | stable assay Renilla, run 1 = 8594; stable assay firefly, run 1 = 3.74e5; call = inactive
CG1640 (GeneID 32292) | stable assay Renilla, run 1 = 6463; stable assay firefly, run 1 = 3.29e5; call = inactive
CG14079 (GeneID 40086) | stable assay Renilla, run 1 = 6431; stable assay firefly, run 1 = 3.57e5; call = inactive
